# The list shows a part of the results.
# Chains of the proteins cited; added tags and fusions are not shown. Lines headed by an entry give the natural chain unless they say otherwise; changes in a name come on top.
# UniProt Q9HCU9: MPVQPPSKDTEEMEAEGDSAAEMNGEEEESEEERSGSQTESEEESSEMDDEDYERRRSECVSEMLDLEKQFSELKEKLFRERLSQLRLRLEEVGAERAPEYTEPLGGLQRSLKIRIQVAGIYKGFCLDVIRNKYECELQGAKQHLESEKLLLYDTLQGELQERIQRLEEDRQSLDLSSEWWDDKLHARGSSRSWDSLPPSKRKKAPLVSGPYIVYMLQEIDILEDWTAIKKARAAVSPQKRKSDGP
# UniProt Q9P281: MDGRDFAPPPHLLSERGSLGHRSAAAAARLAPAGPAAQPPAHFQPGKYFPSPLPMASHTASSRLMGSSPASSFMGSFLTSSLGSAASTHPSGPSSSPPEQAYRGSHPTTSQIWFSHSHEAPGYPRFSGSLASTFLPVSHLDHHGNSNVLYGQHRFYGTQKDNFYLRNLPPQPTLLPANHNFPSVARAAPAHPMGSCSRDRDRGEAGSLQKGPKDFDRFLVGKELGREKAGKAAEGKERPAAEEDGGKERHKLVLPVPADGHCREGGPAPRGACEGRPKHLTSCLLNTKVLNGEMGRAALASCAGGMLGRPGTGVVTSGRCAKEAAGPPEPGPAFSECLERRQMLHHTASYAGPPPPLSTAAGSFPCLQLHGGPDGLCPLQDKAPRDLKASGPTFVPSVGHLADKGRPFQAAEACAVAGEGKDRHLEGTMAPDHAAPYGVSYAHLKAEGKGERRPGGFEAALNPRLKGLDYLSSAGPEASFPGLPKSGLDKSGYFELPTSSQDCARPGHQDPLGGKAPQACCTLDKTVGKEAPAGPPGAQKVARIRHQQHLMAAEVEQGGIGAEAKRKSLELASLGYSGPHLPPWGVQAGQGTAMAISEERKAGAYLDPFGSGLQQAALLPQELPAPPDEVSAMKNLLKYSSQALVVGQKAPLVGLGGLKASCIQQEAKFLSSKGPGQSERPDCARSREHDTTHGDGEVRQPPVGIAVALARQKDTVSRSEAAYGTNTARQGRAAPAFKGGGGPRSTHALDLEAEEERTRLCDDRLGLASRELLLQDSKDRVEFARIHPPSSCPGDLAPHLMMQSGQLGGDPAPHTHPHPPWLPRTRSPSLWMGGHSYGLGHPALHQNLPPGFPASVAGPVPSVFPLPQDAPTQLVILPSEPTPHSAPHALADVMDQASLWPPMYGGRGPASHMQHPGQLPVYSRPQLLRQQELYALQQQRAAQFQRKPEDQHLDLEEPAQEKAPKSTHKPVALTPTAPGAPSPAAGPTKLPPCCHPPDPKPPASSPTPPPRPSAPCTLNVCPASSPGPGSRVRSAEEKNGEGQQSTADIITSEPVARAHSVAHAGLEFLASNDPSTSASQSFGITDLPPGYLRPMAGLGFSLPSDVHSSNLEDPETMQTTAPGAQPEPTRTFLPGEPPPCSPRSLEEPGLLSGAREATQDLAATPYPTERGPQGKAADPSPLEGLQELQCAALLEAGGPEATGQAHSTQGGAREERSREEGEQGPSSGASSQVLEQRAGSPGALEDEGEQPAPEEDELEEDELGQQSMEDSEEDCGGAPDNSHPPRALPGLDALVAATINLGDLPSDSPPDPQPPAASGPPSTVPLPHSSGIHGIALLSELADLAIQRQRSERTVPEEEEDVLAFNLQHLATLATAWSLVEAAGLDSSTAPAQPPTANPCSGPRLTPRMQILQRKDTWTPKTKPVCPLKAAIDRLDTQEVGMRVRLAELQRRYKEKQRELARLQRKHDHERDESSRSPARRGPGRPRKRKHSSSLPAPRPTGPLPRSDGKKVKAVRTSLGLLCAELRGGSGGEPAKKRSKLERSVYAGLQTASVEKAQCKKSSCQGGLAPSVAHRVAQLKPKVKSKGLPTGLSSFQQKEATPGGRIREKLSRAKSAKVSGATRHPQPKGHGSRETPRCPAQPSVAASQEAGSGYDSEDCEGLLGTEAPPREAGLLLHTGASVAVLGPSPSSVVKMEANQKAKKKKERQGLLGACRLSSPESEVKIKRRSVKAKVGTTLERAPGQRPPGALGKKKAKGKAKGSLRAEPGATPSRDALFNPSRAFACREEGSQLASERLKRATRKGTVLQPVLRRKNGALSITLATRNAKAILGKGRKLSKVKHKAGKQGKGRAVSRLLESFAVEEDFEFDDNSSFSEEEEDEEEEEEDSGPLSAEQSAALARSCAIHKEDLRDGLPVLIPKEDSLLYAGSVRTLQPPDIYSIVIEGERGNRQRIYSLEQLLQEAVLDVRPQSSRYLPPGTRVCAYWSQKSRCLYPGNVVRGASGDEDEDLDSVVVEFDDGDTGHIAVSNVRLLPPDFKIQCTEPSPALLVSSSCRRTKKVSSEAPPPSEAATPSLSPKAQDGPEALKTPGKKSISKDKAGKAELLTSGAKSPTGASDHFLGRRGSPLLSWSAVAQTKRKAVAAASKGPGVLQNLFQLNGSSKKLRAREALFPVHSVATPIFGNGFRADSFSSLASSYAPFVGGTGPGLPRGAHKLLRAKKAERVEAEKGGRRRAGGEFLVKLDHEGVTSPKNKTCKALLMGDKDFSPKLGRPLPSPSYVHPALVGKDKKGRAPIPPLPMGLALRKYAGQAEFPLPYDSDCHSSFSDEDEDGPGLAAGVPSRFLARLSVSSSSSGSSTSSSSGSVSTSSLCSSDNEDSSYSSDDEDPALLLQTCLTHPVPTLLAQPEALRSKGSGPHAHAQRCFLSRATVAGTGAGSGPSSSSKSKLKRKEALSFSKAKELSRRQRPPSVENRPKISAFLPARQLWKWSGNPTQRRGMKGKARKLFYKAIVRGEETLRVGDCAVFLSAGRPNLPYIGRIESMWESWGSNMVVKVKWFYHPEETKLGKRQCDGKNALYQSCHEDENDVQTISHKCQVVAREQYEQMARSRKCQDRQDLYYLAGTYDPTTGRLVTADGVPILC
# UniProt Q8TBE0: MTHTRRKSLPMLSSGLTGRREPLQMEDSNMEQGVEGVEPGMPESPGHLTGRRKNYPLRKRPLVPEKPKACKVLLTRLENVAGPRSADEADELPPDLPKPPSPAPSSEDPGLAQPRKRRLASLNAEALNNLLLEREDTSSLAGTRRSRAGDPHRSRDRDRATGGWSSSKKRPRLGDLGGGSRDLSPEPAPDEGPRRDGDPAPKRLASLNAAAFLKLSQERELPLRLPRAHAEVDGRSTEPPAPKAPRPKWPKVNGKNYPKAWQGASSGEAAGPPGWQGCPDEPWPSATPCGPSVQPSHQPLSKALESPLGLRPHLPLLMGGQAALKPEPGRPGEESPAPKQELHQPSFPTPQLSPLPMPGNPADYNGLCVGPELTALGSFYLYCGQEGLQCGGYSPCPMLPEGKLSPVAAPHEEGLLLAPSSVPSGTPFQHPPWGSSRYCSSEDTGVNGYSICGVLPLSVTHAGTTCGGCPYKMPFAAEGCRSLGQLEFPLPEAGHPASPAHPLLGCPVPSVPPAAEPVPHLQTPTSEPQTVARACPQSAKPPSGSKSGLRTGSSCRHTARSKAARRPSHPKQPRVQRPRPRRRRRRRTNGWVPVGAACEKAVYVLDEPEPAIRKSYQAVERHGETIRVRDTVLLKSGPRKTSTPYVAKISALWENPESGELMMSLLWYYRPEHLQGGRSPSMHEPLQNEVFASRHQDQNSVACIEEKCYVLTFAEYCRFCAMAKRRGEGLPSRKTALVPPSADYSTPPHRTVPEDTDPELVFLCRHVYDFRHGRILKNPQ
# UniProt Q16611: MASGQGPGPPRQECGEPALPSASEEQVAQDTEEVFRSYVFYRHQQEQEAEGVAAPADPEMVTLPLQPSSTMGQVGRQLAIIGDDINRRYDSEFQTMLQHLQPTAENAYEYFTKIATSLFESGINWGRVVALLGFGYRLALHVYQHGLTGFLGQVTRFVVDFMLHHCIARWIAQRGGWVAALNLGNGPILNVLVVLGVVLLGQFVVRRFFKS
# UniProt Q9H8M2, whole entry, looked up: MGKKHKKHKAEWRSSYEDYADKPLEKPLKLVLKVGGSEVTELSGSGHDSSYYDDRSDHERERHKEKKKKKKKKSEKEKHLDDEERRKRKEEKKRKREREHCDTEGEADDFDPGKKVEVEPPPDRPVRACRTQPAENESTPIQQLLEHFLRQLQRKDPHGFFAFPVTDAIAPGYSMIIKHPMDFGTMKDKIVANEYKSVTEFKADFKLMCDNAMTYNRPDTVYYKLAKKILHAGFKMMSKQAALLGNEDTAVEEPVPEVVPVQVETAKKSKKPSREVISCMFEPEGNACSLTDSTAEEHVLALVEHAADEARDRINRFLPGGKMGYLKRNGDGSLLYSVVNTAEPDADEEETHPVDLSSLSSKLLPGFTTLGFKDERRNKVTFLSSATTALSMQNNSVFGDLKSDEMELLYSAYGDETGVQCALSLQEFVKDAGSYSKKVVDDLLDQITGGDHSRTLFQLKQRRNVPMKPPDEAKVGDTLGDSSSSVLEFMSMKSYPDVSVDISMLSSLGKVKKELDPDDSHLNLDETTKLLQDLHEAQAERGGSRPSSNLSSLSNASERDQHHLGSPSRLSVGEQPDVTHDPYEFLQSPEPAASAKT
# UniProt Q4VC05, whole entry, looked up: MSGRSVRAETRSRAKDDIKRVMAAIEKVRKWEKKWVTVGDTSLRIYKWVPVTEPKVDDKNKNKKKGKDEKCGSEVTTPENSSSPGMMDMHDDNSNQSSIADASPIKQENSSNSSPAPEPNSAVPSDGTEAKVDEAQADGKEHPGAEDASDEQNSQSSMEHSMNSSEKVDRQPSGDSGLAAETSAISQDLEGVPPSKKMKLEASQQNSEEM
# UniProt Q9UIF9: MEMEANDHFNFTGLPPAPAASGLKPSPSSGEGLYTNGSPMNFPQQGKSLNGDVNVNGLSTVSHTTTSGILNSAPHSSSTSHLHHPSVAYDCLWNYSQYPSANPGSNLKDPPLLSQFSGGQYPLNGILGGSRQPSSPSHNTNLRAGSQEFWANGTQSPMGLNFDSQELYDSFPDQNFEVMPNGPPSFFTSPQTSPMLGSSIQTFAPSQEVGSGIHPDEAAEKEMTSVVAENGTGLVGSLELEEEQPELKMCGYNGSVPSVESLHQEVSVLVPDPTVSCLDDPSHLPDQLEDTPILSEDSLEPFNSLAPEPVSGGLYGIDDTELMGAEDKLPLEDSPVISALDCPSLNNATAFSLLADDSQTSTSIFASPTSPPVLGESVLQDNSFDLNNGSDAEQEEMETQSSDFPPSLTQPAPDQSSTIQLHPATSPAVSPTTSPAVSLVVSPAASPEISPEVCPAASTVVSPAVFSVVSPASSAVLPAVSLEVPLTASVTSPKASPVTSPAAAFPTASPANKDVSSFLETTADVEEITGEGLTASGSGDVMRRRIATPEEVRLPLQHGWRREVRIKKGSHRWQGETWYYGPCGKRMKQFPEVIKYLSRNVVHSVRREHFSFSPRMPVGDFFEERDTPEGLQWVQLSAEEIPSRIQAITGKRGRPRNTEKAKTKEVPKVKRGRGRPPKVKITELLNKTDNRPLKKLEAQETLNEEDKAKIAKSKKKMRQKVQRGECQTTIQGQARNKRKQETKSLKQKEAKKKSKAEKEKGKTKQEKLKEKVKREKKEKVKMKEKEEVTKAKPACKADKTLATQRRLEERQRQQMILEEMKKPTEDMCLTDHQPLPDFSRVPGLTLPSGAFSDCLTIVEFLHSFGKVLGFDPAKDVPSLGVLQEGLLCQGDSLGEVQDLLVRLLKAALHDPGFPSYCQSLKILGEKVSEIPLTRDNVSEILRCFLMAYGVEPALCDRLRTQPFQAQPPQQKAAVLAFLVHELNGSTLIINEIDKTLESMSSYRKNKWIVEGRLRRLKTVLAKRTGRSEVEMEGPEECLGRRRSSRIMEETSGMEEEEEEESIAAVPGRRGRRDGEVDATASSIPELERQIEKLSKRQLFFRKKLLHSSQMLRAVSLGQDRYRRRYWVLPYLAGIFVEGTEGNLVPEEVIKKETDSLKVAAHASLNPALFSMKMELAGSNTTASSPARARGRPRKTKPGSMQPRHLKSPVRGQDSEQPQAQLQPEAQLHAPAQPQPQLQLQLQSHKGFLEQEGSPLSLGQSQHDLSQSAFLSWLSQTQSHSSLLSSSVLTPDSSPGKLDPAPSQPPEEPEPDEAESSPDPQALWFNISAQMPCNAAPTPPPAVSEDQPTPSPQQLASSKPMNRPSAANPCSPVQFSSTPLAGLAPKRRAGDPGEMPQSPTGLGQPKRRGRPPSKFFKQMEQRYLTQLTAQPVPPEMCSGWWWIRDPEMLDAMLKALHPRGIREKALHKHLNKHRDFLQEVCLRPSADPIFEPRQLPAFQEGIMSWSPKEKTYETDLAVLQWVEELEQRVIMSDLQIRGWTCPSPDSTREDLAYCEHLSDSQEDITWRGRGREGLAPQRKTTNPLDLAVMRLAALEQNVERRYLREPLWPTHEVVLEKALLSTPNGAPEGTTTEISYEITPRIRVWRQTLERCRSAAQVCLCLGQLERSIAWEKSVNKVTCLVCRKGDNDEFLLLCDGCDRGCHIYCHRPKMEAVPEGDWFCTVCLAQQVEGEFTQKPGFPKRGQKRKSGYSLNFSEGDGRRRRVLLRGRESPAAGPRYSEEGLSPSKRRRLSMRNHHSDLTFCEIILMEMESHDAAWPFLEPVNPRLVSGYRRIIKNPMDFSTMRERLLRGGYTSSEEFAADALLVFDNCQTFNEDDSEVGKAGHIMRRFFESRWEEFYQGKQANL
# What was measured:
# Test in all cases: log2 fold change, soluble protein after heating vs DMSO (PISA); higher = thermal stabilisation; K562 lysate, 10 uM; active = over 0.2 and 3.5 SD of the protein, either way, in both replicates (recomputed)
# [1] = compound: CC1=C2C(=CC=C1)N=C(N(C2=O)C3=CC=CC=C3C)CN4C=NC5=C(N=CN=C54)N
# In short: (§1)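 Following dounce homogenisation of K562 pellets in PBS pH 7.4 with 1 mM MgCl2, crude extract at 1 mg/mL protein was incubated for 30 min with 10 μM compound. Aliquots were then heated for 3 min over 48°C-58°C and pooled, NP-40 was added to 0.5% at 4°C, and soluble protein was recovered as the supernatant at 21,000xg for 90 min. Channel-sum-equalised TMTpro 16plex LC-MS/MS quantified this protein. Each value, from duplicates, is a log-two fold change in thermal stability relative to solvent controls.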
# [2] = compound: Cc1sc2c(c1C)C(c1ccc(Cl)cc1)=N[C@@H](CC(=O)OC(C)(C)C)c1nnc(C)n1-2
# In short: as §1
# [3] = compound: C1=CC=C(C=C1)[C@H](COC2=CC3=C(C=C2)NC(=O)N3)NC(=O)C4=CC=CN(C4=O)CC5=CC(=C(C=C5)F)F
# In short: as §1
# [4] = compound: CC1=C(SC2=C1C(=N[C@H](C3=NN=C(N32)C)CC(=O)N)C4=CC=C(C=C4)Cl)C
# In short: as §1
# [5] = compound: c1ccc([C@@H]2C[C@H]2NC2CCNCC2)cc1
# In short: as §1
# IRAK-1-4 Inhibitor I = compound: C1COCCN1CCN2C3=CC=CC=C3N=C2NC(=O)C4=CC(=CC=C4)[N+](=O)[O-] [IRAK-1-4 Inhibitor I]
# In short: as §1
target,measurement,setting,value
BRMS1 (UniProt Q9HCU9),log2 fold change,[1],inactive: -0.085
same,log2 fold change,[2],inactive: -0.018
BPIFA2 (UniProt Q96DR5),log2 fold change,[3],inactive: 0.189
same,log2 fold change,[4],inactive: -0.176
same,log2 fold change,[5],inactive: -0.024
BRWD1 (UniProt Q9NSI6),log2 fold change,[2],inactive: 0.097
BAG6 (UniProt F6WML8),log2 fold change,[1],inactive: -0.04
BRIP1 (UniProt Q9BX63),log2 fold change,[1],inactive: -0.042
same,log2 fold change,[2],inactive: 0.075
same,log2 fold change,[5],inactive: -0.025
BIN3 (UniProt Q9NQY0),log2 fold change,[3],inactive: -0.017
same,log2 fold change,[4],inactive: -0.101
same,log2 fold change,[2],inactive: 0.084
same,log2 fold change,[5],inactive: 0
BAHCC1 (UniProt Q9P281),log2 fold change,[1],inactive: 0.011
same,log2 fold change,[2],inactive: -0.187
same,log2 fold change,[5],active: -0.696
BCORL1 isoform 3 (UniProt Q5H9F3),log2 fold change,IRAK-1-4 Inhibitor I,inactive: -0.141
same,log2 fold change,[1],inactive: 0.029
same,log2 fold change,[2],inactive: 0
same,log2 fold change,[5],inactive: -0.382
BBS4 isoform 2 (UniProt Q96RK4),log2 fold change,[2],inactive: 0.034
same,log2 fold change,[5],inactive: -0.005
BAHD1 (UniProt Q8TBE0),log2 fold change,[3],inactive: 0.271
same,log2 fold change,[4],inactive: 0.065
same,log2 fold change,[2],inactive: -0.068
same,log2 fold change,[5],inactive: 0.099
BAK1 (UniProt Q16611),log2 fold change,[1],inactive: -0.127
same,log2 fold change,[2],inactive: -0.271
same,log2 fold change,[5],inactive: 0.034
BPIFB1 (UniProt Q8TDL5),log2 fold change,[5],inactive: -0.255
BRMS1L (UniProt Q5PSV4),log2 fold change,[1],inactive: -0.001
BEX2 isoform 2 (UniProt Q9BXY8),log2 fold change,[1],inactive: -0.066
same,log2 fold change,[5],inactive: -0.299
BRD9 (UniProt Q9H8M2),log2 fold change,[5],inactive: -0.051
BCL7A (UniProt Q4VC05),log2 fold change,[3],inactive: -0.018
same,log2 fold change,[4],inactive: 0.209
same,log2 fold change,[2],inactive: -0.119
same,log2 fold change,[5],inactive: 0.217
BAZ2A (UniProt Q9UIF9),log2 fold change,[5],inactive: -0.012
B4GALT7 (UniProt Q9UBV7),log2 fold change,[1],inactive: 0.377
same,log2 fold change,[5],inactive: 0.135

# An excerpt of these results, with tabs:
target	measurement	setting	value
BRIP1 (UniProt Q9BX63)	log2 fold change	[5]	inactive: -0.025
BIN3 (UniProt Q9NQY0)	log2 fold change	[3]	inactive: -0.017
same	log2 fold change	[4]	inactive: -0.101
BCORL1 isoform 3 (UniProt Q5H9F3)	log2 fold change	[2]	inactive: 0
same	log2 fold change	[5]	inactive: -0.382
BAHD1 (UniProt Q8TBE0)	log2 fold change	[3]	inactive: 0.271
BRMS1L (UniProt Q5PSV4)	log2 fold change	[1]	inactive: -0.001
BEX2 isoform 2 (UniProt Q9BXY8)	log2 fold change	[5]	inactive: -0.299
BCL7A (UniProt Q4VC05)	log2 fold change	[3]	inactive: -0.018
B4GALT7 (UniProt Q9UBV7)	log2 fold change	[5]	inactive: 0.135

# Reference: the supplement of paper PMC10849652
